# Library screening results

Sequences of proteins named here, by UniProt entry; tags and fusion partners are left off.
UniProt E9BF75, entry or part of it: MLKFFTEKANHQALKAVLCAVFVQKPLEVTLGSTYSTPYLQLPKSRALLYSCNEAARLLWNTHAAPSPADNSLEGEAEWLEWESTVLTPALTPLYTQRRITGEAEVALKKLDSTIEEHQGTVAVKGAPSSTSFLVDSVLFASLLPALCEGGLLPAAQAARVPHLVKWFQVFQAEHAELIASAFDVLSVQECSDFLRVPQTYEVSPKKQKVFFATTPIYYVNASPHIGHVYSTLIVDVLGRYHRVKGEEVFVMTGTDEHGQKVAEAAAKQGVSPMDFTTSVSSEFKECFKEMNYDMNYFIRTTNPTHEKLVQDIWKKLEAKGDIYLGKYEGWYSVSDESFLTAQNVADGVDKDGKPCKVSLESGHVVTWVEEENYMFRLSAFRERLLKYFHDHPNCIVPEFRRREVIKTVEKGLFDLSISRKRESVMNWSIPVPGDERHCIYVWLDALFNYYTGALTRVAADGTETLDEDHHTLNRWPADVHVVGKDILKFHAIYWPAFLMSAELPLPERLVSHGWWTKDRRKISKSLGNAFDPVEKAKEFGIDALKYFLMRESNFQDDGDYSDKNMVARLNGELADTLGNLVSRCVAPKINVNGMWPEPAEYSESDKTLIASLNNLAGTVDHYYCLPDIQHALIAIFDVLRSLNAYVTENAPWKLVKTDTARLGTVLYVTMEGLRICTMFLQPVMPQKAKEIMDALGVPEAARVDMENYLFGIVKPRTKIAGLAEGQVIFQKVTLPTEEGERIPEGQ

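Methionyl-tRNA synthetase (putative), Leishmania donovani (UniProt E9BF75). Primary screen of methionyl-tRNA synthetase; the read-out is not stated. The test concentration is not given. The values are filed as inhibition. About 68,000 compounds were tested under these conditions; 0.035% (about 24) showed 50% or more at least once.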

Results are percentages, as filed. The controls that fix the scale are not given in the record; negative values are as filed. The compounds are a random part of those screened.

{"smiles": "CCOC(=O)[C@H]1CNC[C@@H]1C(=O)OCC", "Inhibition": 17.79}
{"smiles": "Cc1noc(C(C)N2CCN(CCOCC(F)(F)F)CC2)n1", "stereo": "centres unmarked", "Inhibition": -0.3175}
{"smiles": "CNC(=O)C1Cc2ccccc2CN1C(=O)CC(C)C", "stereo": "centres unmarked", "Inhibition": 10.45}
{"smiles": "Cn1cc(N2C(=O)CC[C@@H]3[C@H]2CCN3Cc2cccc(C#N)c2)cn1", "Inhibition": 4.658}
{"smiles": "O=S(=O)(NCCN1CC=CC1)c1cncc(Cl)c1", "Inhibition": 19.37}
{"smiles": "CCC(c1ccccc1)N1CCN(C(=O)c2cc(C(N)=O)c[nH]2)CC1", "stereo": "centres unmarked", "Inhibition": 23.76}
{"smiles": "N#Cc1cccnc1N[C@@H]1c2ccccc2C[C@@H]1O", "Inhibition": 15.65}
{"smiles": "Cc1cc(S(=O)(=O)N2CCC(S(C)(=O)=O)CC2)ccc1F", "Inhibition": 21.57}
{"smiles": "Cc1cc(NS(=O)(=O)c2ccccc2F)ccc1-n1cccc1C(=O)O", "Inhibition": 14.08}
{"smiles": "Cc1ccc(C)c(CC(=O)Nc2cnccc2SCCCO)c1", "Inhibition": 8.179}
{"smiles": "CC(C)C(C)NC(=O)CCN1C(=O)CCc2cc(F)ccc21", "stereo": "centres unmarked", "Inhibition": 2.835}
{"smiles": "CCn1cc(CN2CCCC(c3[nH]ncc3-c3ccc(C)cc3)C2)cn1", "stereo": "centres unmarked", "Inhibition": 14.5}
{"smiles": "O=C1CCC(=O)c2oc3ccc(Br)cc3c2N1", "Inhibition": 7.649}
{"smiles": "COc1ccc(COCC(=O)N2CCN(CC(C)(C)O)CC2)cc1", "Inhibition": 11.48}
{"smiles": "CCn1c(CC2CCN(C(=O)C3CNCCO3)CC2)nn(C)c1=O", "stereo": "centres unmarked", "Inhibition": 16.43}
{"smiles": "Cc1cc(C)n(CC(C)NCCn2nc(C)c(Cl)c2C)n1", "stereo": "centres unmarked", "Inhibition": 12.42}
{"smiles": "Cc1nnc2n1CC(CNc1cnc3ccccc3n1)CC2", "stereo": "centres unmarked", "Inhibition": 13.52}
{"smiles": "CCn1cnnc1CNC(=O)c1ccc(Br)cc1F", "Inhibition": 3.343}
{"smiles": "CC(CS(C)(=O)=O)N(C(=O)CCc1ccc(Cl)s1)C1CC1", "stereo": "centres unmarked", "Inhibition": 7.986}
{"smiles": "Cc1cc(C)c(S(=O)(=O)Nc2c(C)nc(N(C)C)nc2C)cc1C", "Inhibition": 8.393}
{"smiles": "COc1ccc(CN2CCn3cccc3C2C)cc1F", "stereo": "centres unmarked", "Inhibition": 20.69}
{"smiles": "CN(C)C(=O)N1CCC2(CC1)CCN(Cc1ccccn1)C2=O", "Inhibition": 6.25}
{"smiles": "CC1CCN(C(=O)NCCc2cc(F)ccc2F)C1", "stereo": "centres unmarked", "Inhibition": 11.11}
{"smiles": "OCCn1nccc1C1CCN(CCOc2ccccc2)CC1", "Inhibition": 14.29}
{"smiles": "Cn1cc(NC(=O)Cn2c(CS(C)(=O)=O)nc3ccccc32)cn1", "Inhibition": 10.56}
{"smiles": "CC(C)(C)NC(=O)c1ccccc1NC(=O)c1ccncc1", "Inhibition": 1.242}
{"smiles": "Cc1cc(C)n(CC2CCCN2C(=O)Cc2c(C)nn(C)c2C)n1", "stereo": "centres unmarked", "Inhibition": 11.35}
{"smiles": "CCOc1ncccc1CNC(=O)N1CCC(n2cncn2)CC1", "Inhibition": 18.23}
{"smiles": "c1csc(N2CCN(c3nccn4cnnc34)CC2)n1", "Inhibition": 14.57}
{"smiles": "CC(=O)N1CCC2(CC1)COCCN2Cc1ccc(F)cc1", "Inhibition": 8.418}
{"smiles": "COc1ccc(CC(=O)N2CCCC2Cn2cc(C)cn2)c(OC)c1", "stereo": "centres unmarked", "Inhibition": 18.23}
{"smiles": "O=C1N(CC2CC2)CCC12CCN(c1ncccn1)CC2", "Inhibition": 7.071}
{"smiles": "Cc1cc(CNC(=O)c2cc(NC(=O)C(C)C)ccc2Cl)no1", "Inhibition": 5.775}
{"smiles": "CC(C)CCc1n[nH]c(C(=O)O)c1Br", "Inhibition": 20.38}
{"smiles": "Cn1ncnc1CNC1CCCc2cc(F)ccc21", "stereo": "centres unmarked", "Inhibition": 8.934}
{"smiles": "Cc1ncc(-c2ccncc2)c(C2CCN(C(=O)c3ccno3)CC2)n1", "Inhibition": -22.05}
{"smiles": "CC(C)Nc1ncnc2c1CCN(C(=O)NCc1cccnc1)CC2", "Inhibition": 13.7}
{"smiles": "c1cc(-c2cn3nccc3nc2C2CCCCC2)nc(N2CCCC2)n1", "Inhibition": 8.01}
{"smiles": "CC(C)CN1CCN(C(=O)CCn2cccn2)CC1", "Inhibition": 9.841}
{"smiles": "CC(=O)N(C)CC(=O)NC(CC(C)C)c1cccs1", "stereo": "centres unmarked", "Inhibition": 11.78}
{"smiles": "CCCc1noc(C2CCN(S(=O)(=O)c3cccs3)CC2)n1", "Inhibition": 7.182}
{"smiles": "OCc1ccccc1CNCC1CNc2ccnn2C1", "stereo": "centres unmarked", "Inhibition": 19.28}
{"smiles": "Cc1cccc2c1nc(CCO)n2-c1ccc(C(=O)N2CCOCC2)o1", "Inhibition": 12.8}
{"smiles": "Cc1nnc2n1CCN(CC(=O)N1CCc3ccccc3C1)C2", "Inhibition": -4.918}
{"smiles": "COCC1CN(S(=O)(=O)c2cccc(F)c2)Cc2nccn2C1", "stereo": "centres unmarked", "Inhibition": 9.384}
{"smiles": "COCC1c2nnn(CC3CC3)c2CCN1Cc1ccncc1", "stereo": "centres unmarked", "Inhibition": 9.15}
{"smiles": "O=C(c1cnccn1)N1CCC2(CC1)C(=O)NCC2c1ccccc1", "stereo": "centres unmarked", "Inhibition": 7.609}
{"smiles": "Cn1nc2c(cc1=O)CN(CCN1CCCC1=O)CC2", "Inhibition": 16.87}
{"smiles": "Cc1ncnc2c1CCN(C(=O)c1cnccn1)CC2", "Inhibition": 12.7}
{"smiles": "CC(C)N1CCC(CC(=O)N2CCN(Cc3nccn3C)CC2)CC1", "Inhibition": 18.54}
{"smiles": "COC(=O)c1ccc(CNC(C)(C)c2ccccc2OC)o1", "Inhibition": 2.799}
{"smiles": "Cc1nc(CCC(N)=O)cc(C2CCNCC2)n1", "Inhibition": 2.26}
{"smiles": "CN(CCN1CCOCC1)C(=O)CCCOCCc1ccccc1", "Inhibition": 3.133}

Source: ChEMBL document CHEMBL3988442, “University of Dundee, Small-Polar-MMV Screening Library” (2021).